Data on 62 compounds can be found in PubChem BioAssay AID445 (National Center for Advancing Translational Sciences (NCATS), 2006).

The test in a line: IkB Signaling. As to conditions: ABC-DLBCL IkBa-CBG/CBR dual luciferase ratio (green luciferase fused to IkBa over red control in OCI-Ly3 lymphoma cells), 4 h. Put shortly: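 In this assay, an IκBα–CBG68 fusion accumulates when IKK-driven degradation is blocked; native CBR normalizes for cell number. OCI-Ly3 cells were treated 4 h with compound and doxycycline, then green and red light read after Chroma-Glo addition.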
The mark [1] stands for this setting: measured here: control luc red channel unless noted.

This is one part of the list. Shown are side measurements of this screen, not its main read-out; they come without a call. The list favours compounds with an active or inconclusive main result. The note in brackets gives the kind of curve behind each potency; many fits are weak.

For orientation: AC50 means the concentration giving half of the maximal activity seen. With `NC(=O)C1(N2CCCCC2)CCN(CC(=O)Nc2ccc(Oc3ccccc3)cc2)CC1`, the AC50 under setting [1] is 15.8 µM [falling, partial curve].

`CCCN(Cc1cc2cc(C)ccc2[nH]c1=O)C(=O)c1cccc(OC)c1`: under setting [1], the concentration at half-maximal activity (AC50) was 15.8 µM [falling, partial curve].

As for `COC(=O)c1cc2sc(Cl)cc2n1CC(=O)Nc1cc(C)cc(C)c1`, under setting [1], the AC50 was 1 µM [falling, full curve].

As for `COC(=O)c1c(N)n(-c2ccc(OC)c(OC)c2)c2nc3ccccc3nc12`, under setting [1], the half-maximal activity concentration (AC50) was 20 µM [falling, single point].

As to `CS(=O)(=O)N(CCc1ccccc1)CC(=O)Nc1ccc2c(c1)OCO2`, the AC50 under setting [1] was 39.8 µM [falling, single point].

Regarding `O=C(CSc1nc2ccccc2o1)NCc1ccc2c(c1)OCO2`, the AC50 under setting [1] is 25.1 µM [falling, single point].

For the compound `CCOc1cccc2sc(N(Cc3cccnc3)C(=O)c3ccc(C#N)cc3)nc12`, under setting [1], the AC50 was 20 µM [falling, partial curve].

Consider `CCCOc1cccc(C(=O)Nc2cc(NC(=O)c3ccco3)ccc2OC)c1`, for which the AC50 under setting [1] is 20 µM [falling, partial curve].

On to `Cc1c(CC(=O)NCc2ccc(F)cc2)c(=O)oc2cc(O)c(Cl)cc12`, for which, under setting [1], the half-maximal activity concentration (AC50) was 25.1 µM [falling, single point].

Turning to `O=C(NCc1ccccc1Cl)c1ccc2oc(=O)n(Cc3ccccc3)c2c1`, the AC50 under setting [1] is 20 µM [falling, partial curve].

Turning to `Cc1cc(C)n(-c2nc3ccccc3nc2N2CCN(c3cccc(C(F)(F)F)c3)CC2)n1`, the AC50 under setting [1] was 31.6 µM [falling, partial curve].

On to `Cc1cccc(-n2nc(C)c(C(=O)Nc3cc(C)ccc3C)c2-n2cccc2)c1`, for which the AC50 under setting [1] was 12.6 µM [falling, partial curve].

In the case of `CC(C)(C)OC(=O)N1CCC[C@H]1c1nnc(SCc2ccc(Cl)cc2Cl)o1`, the concentration at half-maximal activity (AC50) under setting [1] was 15.8 µM [falling, partial curve].

Turning to `COc1ccccc1N1CCN(C(=O)c2ccc(S(=O)(=O)N3CCCCCC3)cc2)CC1`, the AC50 under setting [1] was 10 µM [falling, partial curve].

In the case of `COc1ccccc1C(=O)Oc1ccc(C(c2c(C)[nH][nH]c2=O)c2c(C)[nH][nH]c2=O)cc1`, the AC50 under setting [1] is 15.8 µM [falling, partial curve].

For `Cc1csc2nc(COC(=O)c3ccccc3NC(=O)c3ccc(C(C)(C)C)cc3)cc(=O)n12`, the AC50 under setting [1] was 0.1 µM [rising, full curve, poor fit].

On to `COc1ccc(CC(=O)Nc2ccc(-c3nc4ccccc4s3)c(C)c2)cc1OC`, for which, under setting [1], the AC50 is 0.316 µM [rising, full curve].

Consider `O=C(CCCn1c(=O)c2cccn2c2ccccc21)NCCc1ccc(Cl)cc1`, for which the AC50 under setting [1] was 20 µM [falling, single point].

For `Cc1cnc(NC(=O)CSc2nnc(-c3ccc(Cl)cc3Cl)n2N)s1`, the AC50 under setting [1] is 15.8 µM [falling, partial curve].

For `CSc1nn(Cc2ccc(C)cc2)c(N)c1S(=O)(=O)c1ccccc1`, the AC50 under setting [1] is 31.6 µM [falling, partial curve].

Consider `COc1ccc(OC)c(NC(=O)Cn2c(=O)cc(-c3ccccc3)c3c(C)nn(C)c32)c1`, for which, under setting [1], the AC50 was 20 µM [falling, partial curve].

Regarding `O=C(CCCCCn1c(=O)[nH]c2ccccc2c1=O)N1CCN(Cc2ccc3c(c2)OCO3)CC1`, the AC50 under setting [1] is 25.1 µM [falling, partial curve].

`Cc1cccc(N2CCN(C(=O)CS(=O)(=O)Cc3nc(-c4ccccc4C)oc3C)CC2C)c1` (stereo not drawn): under setting [1], the AC50 is 25.1 µM [falling, partial curve].

Consider `CCOc1ccc(N(Cc2ccccc2)C(=O)c2nc(S(C)(=O)=O)ncc2Cl)cc1`, for which, under setting [1], the half-maximal activity concentration (AC50) was 3.16 µM [falling, full curve].

On to `CC(=O)c1c(C)oc2c1cc(NS(=O)(=O)c1ccc(Cl)c(C)c1)c1ccccc12`, for which the AC50 under setting [1] was 12.6 µM [falling, partial curve].

Turning to `O=S(=O)(c1cccs1)N1CCN(Cc2nc3ccccc3s2)CC1`, the AC50 under setting [1] was 15.8 µM [falling, partial curve].

As for `Cc1c(Cl)cccc1NC(=O)c1cc(-c2ccc(O)cc2)on1`, under setting [1], the half-maximal activity concentration (AC50) is 5.01 µM [falling, partial curve].

With `O=C(Nc1ccc(Cl)cc1)C(NS(=O)(=O)c1cccs1)c1ccccc1` (stereo not drawn), the AC50 under setting [1] was 31.6 µM [falling, single point].

With `Cc1nc(-c2ccc(C)c(N3CCN(C(=O)Nc4cccc(Cl)c4C)CC3)c2)no1`, the AC50 under setting [1] is 25.1 µM [falling, partial curve].

In the case of `Cc1ccc(-n2c(Cc3ccccc3)nnc2SCc2nc(-c3cccs3)no2)cc1C`, the AC50 under setting [1] is 25.1 µM [falling, partial curve].

`COc1ccc(CNC(=O)c2ccc3nc(-c4ccc(F)cc4)c(-c4ccc(F)cc4)nc3c2)cc1`: the AC50 under setting [1] is 15.8 µM [falling, partial curve, poor fit].

On to `Cc1ccc(NC(=O)c2ccccc2Br)c(C(=O)c2ccccc2)c1`, for which the AC50 under setting [1] is 39.8 µM [falling, single point].

Regarding `CC1CCN(c2nc3ccc(C(=O)NCc4ccccc4)cc3s2)CC1`, the AC50 under setting [1] is 3.98 µM [falling, partial curve].

For `COc1ccc(-c2cc(=O)c3c(O)cc(O)cc3o2)cc1`, the AC50 under setting [1] is 6.31 µM [falling, partial curve].

Take `COc1ccc(CC(=O)Nc2nc3c(s2)CC(C)CC3)cc1` (stereo not drawn): the AC50 under setting [1] is 25.1 µM [falling, partial curve].

On to `CCN(C(=O)COc1cc(=O)n(CC)c2ccccc12)c1cc(Cl)ccc1OC`, for which the AC50 under setting [1] was 12.6 µM [falling, partial curve].

For `C[C@@H](C(=O)O)c1ccc(N2Cc3ccccc3C2=O)cc1`, the AC50 under setting [1] was 12.6 µM [falling, partial curve].

Regarding `COc1ccc2c(c1)c1c(c(=O)n(CCc3ccccc3)c(=O)n1Cc1cccc(Cl)c1)n2C`, the AC50 under setting [1] is 12.6 µM [falling, partial curve].

Take `Cc1ccccc1OCCCC(=O)Nc1nccs1`: the AC50 under setting [1] is 25.1 µM [falling, partial curve].

Consider `CCOc1ccccc1Nc1ncnc2c1cnn2-c1ccc(C)cc1`, for which, under setting [1], the half-maximal activity concentration (AC50) was 25.1 µM [falling, partial curve].

Turning to `CC1CN(C(=O)N2CCC(C(=O)NCCCc3ccccc3)CC2)c2cc(Cl)ccc2O1` (stereo not drawn), the AC50 under setting [1] is 25.1 µM [falling, single point].

Turning to `CCOc1ccc(CNC(=O)c2ccc3oc(=O)n(Cc4ccccc4)c3c2)cc1`, the AC50 under setting [1] was 15.8 µM [falling, partial curve].

Take `CC(C)c1c(C#N)c(N)nc(SCC(=O)c2cc3ccccc3oc2=O)c1C#N`: the AC50 under setting [1] was 3.98 µM [falling, partial curve].

Consider `COc1ccc(CCNC(=O)CCc2c(C)nc3c4c(C)cc(C)nc4nn3c2C)cc1OC`, for which the AC50 under setting [1] is 20 µM [falling, single point].

Turning to `CC1(C)Cc2c(sc3c2c(=N)n(Cc2ccco2)c(=O)n3Cc2ccccc2)CO1`, the AC50 under setting [1] was 20 µM [falling, single point].

For the compound `Cc1ccc(Cn2nnc3c(=O)[nH]c(C4CCN(C(=O)Cc5ccccc5F)CC4)nc32)cc1`, under setting [1], the AC50 was 39.8 µM [falling, single point].

In the case of `CC(=O)c1c(C)oc2ccc(N(C(=O)Oc3ccccc3)S(=O)(=O)c3ccc(Cl)cc3)cc12`, the half-maximal activity concentration (AC50) under setting [1] was 31.6 µM [falling, single point].

On to `CCc1cccc(NS(=O)(=O)c2c(C)[nH]c(=O)[nH]c2=O)c1`, for which, under setting [1], the AC50 is 3.98 µM [falling, partial curve].

Take `O=C(Nc1ccc(Nc2ccccc2)cc1)c1ccc(Br)o1`: the AC50 under setting [1] was 12.6 µM [falling, partial curve].

`COc1ccc2c(c1)cc(CNc1ccc(OC)c(OC)c1)c(=O)n2CC(=O)Nc1ccccc1C`: the AC50 under setting [1] is 25.1 µM [falling, partial curve, poor fit].

In the case of `CCCNc1nc2c(c(=O)n(C)c(=O)n2C)n1CCc1ccccc1`, the AC50 under setting [1] is 15.8 µM [falling, partial curve].

With `Cc1nc2ccccc2c(=O)n1/N=C/c1cn(-c2ccccc2)nc1-c1cccs1`, the AC50 under setting [1] is 12.6 µM [falling, partial curve].

For the compound `Cc1ccc(S(=O)(=O)Nc2cccc(-c3ccc(N4CCC(C)CC4)nn3)c2)s1`, under setting [1], the AC50 is 10 µM [falling, partial curve].

`Cc1ccc(NCc2cccn2-c2nnc(N3CCC(C(=O)NCCc4ccc(Cl)cc4)CC3)s2)cc1`: the AC50 under setting [1] is 7.94 µM [falling, partial curve].

In the case of `CC(C)(C)NC(=O)COC(=O)c1snc(C(=O)NC2CCCCC2)c1N`, under setting [1], the AC50 is 3.98 µM [falling, partial curve].

As to `CCc1nn2c(=O)cc(COC(=O)c3cccc(NC(=O)CCc4ccccc4)c3)nc2s1`, the AC50 under setting [1] is 0.398 µM [falling, full curve].

As to `COc1ccccc1CNC(=O)C1CCN(c2nc3ccc(Cl)cc3[nH]2)CC1`, the AC50 under setting [1] was 31.6 µM [falling, single point].

Consider `O=C(Nc1ncc(Br)s1)C(Cc1ccccc1)n1cccc1` (stereo not drawn), for which the AC50 was 12.6 µM [falling, partial curve] (measured here: IkB-luc green channel) and 10 µM [falling, partial curve] (measured here: control luc red channel).

With `COc1cc2c(=O)n(CCC(=O)NCC3CCCO3)c(=O)n(CC(=O)Nc3ccccc3C)c2cc1OC` (stereo not drawn), the AC50 under setting [1] is 5.01 µM [falling, partial curve].

On to `CCCCOc1ccc(CNC(=O)c2cccc(NC(=O)N3CCSc4ncccc43)c2)cc1`, for which the half-maximal activity concentration (AC50) under setting [1] is 15.8 µM [falling, partial curve].

With `COc1ccc(-n2ncc3c(NCCCOC(C)C)ncnc32)cc1`, the AC50 under setting [1] was 31.6 µM [falling, partial curve].

In the case of `O=C(CCc1nc(CN2CCN(S(=O)(=O)c3ccc(Br)cc3)CC2)no1)N1CCCCC1`, the AC50 under setting [1] was 20 µM [falling, single point].
